Primary screen of a compound library

By UniProt entry, the sequences of proteins in these tests, tags left out.
UniProt E9BF75, entry or part of it: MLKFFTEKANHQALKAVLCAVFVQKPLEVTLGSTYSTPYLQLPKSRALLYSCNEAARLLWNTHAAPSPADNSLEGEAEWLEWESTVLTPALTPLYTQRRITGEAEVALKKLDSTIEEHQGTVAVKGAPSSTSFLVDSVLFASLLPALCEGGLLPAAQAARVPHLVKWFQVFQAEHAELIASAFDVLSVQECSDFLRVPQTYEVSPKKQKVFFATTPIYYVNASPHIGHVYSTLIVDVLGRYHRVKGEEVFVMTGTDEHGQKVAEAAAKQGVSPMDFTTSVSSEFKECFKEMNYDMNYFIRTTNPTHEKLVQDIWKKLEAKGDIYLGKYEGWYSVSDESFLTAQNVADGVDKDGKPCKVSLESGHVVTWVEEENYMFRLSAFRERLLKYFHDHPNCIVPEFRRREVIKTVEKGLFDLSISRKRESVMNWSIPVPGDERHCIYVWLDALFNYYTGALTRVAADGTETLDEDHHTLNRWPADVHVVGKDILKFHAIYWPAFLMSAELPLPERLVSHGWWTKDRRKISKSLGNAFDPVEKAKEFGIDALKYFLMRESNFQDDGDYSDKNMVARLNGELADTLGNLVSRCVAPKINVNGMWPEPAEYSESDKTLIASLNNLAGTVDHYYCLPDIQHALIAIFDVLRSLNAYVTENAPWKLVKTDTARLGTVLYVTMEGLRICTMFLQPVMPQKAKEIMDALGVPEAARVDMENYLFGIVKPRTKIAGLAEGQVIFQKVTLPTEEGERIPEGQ

A: 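Methionyl-tRNA synthetase (putative), Leishmania donovani (UniProt E9BF75). Primary screen of methionyl-tRNA synthetase; the read-out is not stated. The test concentration is not given. The values are filed as inhibition. Size under these conditions: about 68,000 compounds, about 24 of them at 50% or above in at least one test.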
B: 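Assay on Mycobacterium tuberculosis, filed only as a heat shock assay from Cornell; the read-out is not stated. The concentration is filed as 10 mM, unlikely as a test dose, so the dose is not known. Direction is inferred from retests: higher values go with stronger inhibition. Size under these conditions: about 69,000 compounds, about 930 of them at 50% or above in at least one test.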

All values are in %.
The controls that fix the scale are not given in the record; negative values are as filed.
This is an unselected part of the compounds tested.
A dash means the value is not listed here; it may have been measured.

| compound | A | B |
|---|---|---|
| `COCCS(=O)(=O)NC(C)c1ccccc1Br` (stereo not drawn) | 11.49% | -9.117% |
| `Cn1cc(CN2CCC3(CCC(C(=O)NCC4CC4)C3)CC2)cn1` (stereo not drawn) | 13.14% | - |
| `CCN1CCC(CNCc2c[nH]nc2C(C)(C)C)C1.Cl` (stereo not drawn) | - | 48.77% |
| `CCn1c(CN(C)C)nnc1C1CCN(Cc2ccccc2)CC1` | 14.96% | -8.728% |
| `COc1cccc(-c2cnc(CNC(C)(C)c3nc(C)cs3)o2)c1` | 2.527% | 1.415% |
| `Cc1ccc(C)c(Sc2nccn(C)c2=O)c1` | 8.871% | -6.307% |
| `[H][C@@]12CCN(C(=O)C3CC3)C[C@]1([H])OCCN(c1ccsc1)C2=O` | - | 0.8497% |
| `Cc1sc(Br)cc1S(=O)(=O)NCc1ccccn1` | 10.65% | 35.75% |
| `O=C(NCCN1CCCCC1)c1scnc1Cl` | 14.17% | 6% |
| `O=C(Cn1cc(C(=O)O)ccc1=O)NCc1ccc(F)cc1Cl` | -0.7792% | -21.29% |
| `CCCC(=O)Nc1cc(C(=O)NC(C)Cc2ccncc2)ccc1C` (stereo not drawn) | 18.75% | -11.25% |
| `Cc1cc(Br)c(O)c(C(=O)N2CCC(CN3CCCCCC3)CC2)c1` | 16.71% | 15.21% |
| `CC(c1nc(C2CC2)no1)N1CCN(CCc2ccncc2)CC1` (stereo not drawn) | 8.871% | -50.26% |
| `CN(C)S(=O)(=O)N1CCN(C(=O)OC(C)(C)C)CC12CCCCC2` | 6.989% | 0.5756% |
| `CCc1cccc(NS(=O)(=O)c2cc(C)c(C(=O)O)s2)c1` | 0.7117% | -3.15% |
| `O=C(O)C(F)(F)F.O=C(O)C(F)(F)F.O=C1CC2(CCN(Cc3ccncc3)C2)CN1c1ccc2c(c1)OCO2` (stereo not drawn) | - | -29.31% |
| `CCc1cc(=O)[nH]c(NC2CCN(S(=O)(=O)c3ccccc3)CC2)n1` | 16.67% | -5.942% |
| `[H][C@@]12CN(C(=O)N(C)C)C[C@]1([H])C(=O)N(C)C21CCN(C(=O)C(C)C)CC1` | - | -12.62% |
| `COc1ccc2c(c1)CCCN(C(C)C(=O)N1CCCC1)C2` (stereo not drawn) | 5.986% | 13.94% |
| `Cc1ncsc1C(=O)N(Cc1cccs1)C1CC1` | 20.7% | 5.762% |
| `Cc1cc(CC(C)Nc2ncc(C)c(N(C)C)n2)[nH]n1` (stereo not drawn) | 9.747% | -19.63% |
| `Cc1cc(C)c(CNc2cnc3ccccc3n2)c(=O)[nH]1` | -3.693% | -11.47% |
| `Cc1cc(C)n(CC2(CNC(=O)C(c3ccccc3C)N(C)C)CC2)n1` (stereo not drawn) | 13.03% | -26.13% |
| `CC(CNS(C)(=O)=O)c1ccc(F)c(F)c1` (stereo not drawn) | 5.541% | -16.08% |
| `[H][C@]12CC[C@]([H])(CN(C(=O)c3ccccn3)C1)N(C(=O)OC(C)C)C2` | - | -6.21% |
| `O=C1CN(C(=O)CCn2c(C(F)(F)F)cc3cccnc32)CCN1` | 15.43% | -8.726% |
| `COC(=O)c1cccc(C(=O)N2CCCCC2CCn2ccnc2C)c1` (stereo not drawn) | 12.68% | -0.06172% |
| `O=C(O)C(F)(F)F.O=C(O)C(F)(F)F.c1cncc(CO[C@H]2CO[C@@]3(CCN(Cc4ccoc4)C3)C2)c1` | - | 6.458% |
| `CN1CC(=O)N(c2ccsc2)CC12CCN(C(=O)CC1CCCC1)C2` (stereo not drawn) | 9.333% | - |
| `CS(=O)(=O)Nc1cccc(CNC(=O)c2cccs2)c1` | 3.125% | 4.364% |
| `CC(CO)Nc1ccc(-c2nc(Cc3ccc(F)cc3)no2)cn1` (stereo not drawn) | 12.39% | -10.53% |
| `O=C(O)C(F)(F)F.[H][C@@]12CCN(C3CCOCC3)C[C@@]1([H])[C@H](C(=O)NC1CC1)CCO2` | - | 16.6% |
| `Cc1occc1C(=O)N1C[C@@H]2CCCO[C@@H]2[C@H](N(C)Cc2ccco2)C1` | 20.62% | - |
| `CC1COc2ccccc2N1C(=O)c1cscn1` (stereo not drawn) | 12.42% | -20.31% |
| `O=C1C[C@H]2CC[C@@H](CN1)N2C(=O)Cc1ccsc1` | 10.7% | - |
| `CC(=O)N1CCN(Cc2ccccn2)CC2(CC(=O)N(C)C2)C1.O=C(O)C(F)(F)F.O=C(O)C(F)(F)F` (stereo not drawn) | - | -32.82% |
| `CS(=O)(=O)NC(=O)c1nnn(-c2cccc(F)c2)c1C1CC1` | 12.01% | -27.61% |
| `O=C(NCCC(O)c1ccco1)c1ccccc1Br` (stereo not drawn) | 15.11% | 8.725% |
| `CCC(CC)CN1CCN(CC(=O)Nc2cccc3nsnc23)CC1` | 9.84% | 14.34% |
| `COCCN1CCC2(CCC(=O)N2Cc2csc(C)n2)CC1.O=C(O)C(F)(F)F.O=C(O)C(F)(F)F` | - | -28.87% |
| `CCn1c(C)nc2cc(NC(=O)C3CN(C(C)=O)C3)ccc21` | 5.901% | -1.174% |
| `Cc1ccc(C(=O)N2CCC3(CCN(c4ccsc4)C3=O)C2)cn1.O=C(O)C(F)(F)F` (stereo not drawn) | - | 2.114% |
| `CN1CC[C@H]2CN(C(=O)c3ccc4sc5c(c4c3)CCNC5=O)C[C@H]21` | 17.39% | - |
| `O=C1COc2ccc(C(=O)NS(=O)(=O)c3cc(F)ccc3F)cc2N1` | 14.29% | -3.117% |
| `O=C(O)c1cnc(N2CCC(c3nccn3CC3CC3)CC2)c(Cl)c1` | 6.138% | 16.21% |
| `O=C(c1cnccn1)N1CCN2C[C@H](OCC3CC3)C[C@H]2C1` | -2.688% | - |

Some entries from above, unchanged:

compound,A,B
Cc1ccc(C)c(Sc2nccn(C)c2=O)c1,8.871%,-6.307%
O=C(O)c1cnc(N2CCC(c3nccn3CC3CC3)CC2)c(Cl)c1,6.138%,16.21%
Cc1occc1C(=O)N1C[C@@H]2CCCO[C@@H]2[C@H](N(C)Cc2ccco2)C1,20.62%,-

Data taken from ChEMBL document CHEMBL3988442, “University of Dundee, Small-Polar-MMV Screening Library” (2021).